Test results published in the supplement of paper PMC3334620.
Over roughly 33,000 sequences, “E-score (-0.5 to 0.5)” has its median near -0.0014; the highest 2% begin near 0.25. The list shows a part of the results.

Biological target: T1, Cad1 (UniProt P24813)
T1 sequence: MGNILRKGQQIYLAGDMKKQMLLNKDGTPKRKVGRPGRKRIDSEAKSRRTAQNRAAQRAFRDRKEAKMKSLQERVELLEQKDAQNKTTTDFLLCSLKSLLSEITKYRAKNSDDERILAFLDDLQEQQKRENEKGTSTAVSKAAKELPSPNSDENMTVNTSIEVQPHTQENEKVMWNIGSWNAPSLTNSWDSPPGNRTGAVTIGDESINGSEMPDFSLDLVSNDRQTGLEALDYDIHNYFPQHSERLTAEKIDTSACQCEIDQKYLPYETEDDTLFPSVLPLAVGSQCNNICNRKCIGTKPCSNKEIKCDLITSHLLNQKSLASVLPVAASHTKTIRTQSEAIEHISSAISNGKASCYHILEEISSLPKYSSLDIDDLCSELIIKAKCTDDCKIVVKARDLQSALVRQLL
Test: PBM E-score (8-mer binding enrichment) (E-score (-0.5 to 0.5)); higher = stronger / more preferred TF binding
Conditions: protein concentration: 100 nM; construct: GST-full length
Procedure, shortened: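 GST-tagged yeast TFs (full-length or DNA-binding domain) were made by PURExpress in vitro transcription/translation and applied at about 100-200 nM to universal all-10-mer Agilent arrays. The arrays were made double-stranded by primer extension, on fresh or once-stripped slides. Bound protein was detected with fluorescent anti-GST, and scans were normalised with masliner. Each ungapped eight-base word, pooled with its reverse complement, received an E-score (modified Wilcoxon-Mann-Whitney statistic) from the Universal PBM Analysis Suite.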

Sequence | PBM E-score
CGAACACG | 0.125
GTGCTTGA | 0.067
ACCCATTA | -0.0176
AACTGGCT | -0.2
AGGGCCCA | -0.0336
ACCCATCA | 0.0594
CGAAGGCC | -0.103
AGAGCGGG | -0.199
GAGTTGAA | -0.0548
AATAAATC | -0.0137
CCTAATCC | -0.0248
AAAAGGCG | -0.0129
GATAAGGC | 0.0254
AGTGAACT | 0.0619
GTCCCCTA | -0.198
CTTCCCGC | -0.00381
CATACGAA | 0.0909
ACTAAAGG | 0.0101
ATTCACAA | 0.228
CCCCTTCC | -0.227
CGCACGCG | -0.00598
GAATGGGC | -0.183
GGGGGCAC | -0.462
GATCTGGC | -0.0466
CAGAGCAC | -0.0601

Sequence | PBM E-score
ATCCGATG | 0.229
ATCGGTGG | -0.17
ATGTAGCA | 0.0316
TAAAGTCA | 0.00267
TACCAGGA | 0.144
AACCTCAG | 0.0655
AAGCAAGG | -0.0354
GAGGATGC | -0.113
GATGCCCA | 0.125
CAAAAGAC | -0.00184
TTAGTGAA | 0.0369
ACTATATG | 0.0931
AGAATCGG | 0.0236
CAAGGCCC | -0.141
CGTACCTA | -0.101
CGCAAAAG | -0.137
TATTGCAA | 0.19
CTAGAGAA | 0.0268
CTTAGAGA | -0.128
GGAAGCAC | -0.00516
AGGGGAAT | 0.131
CGACTCAC | -0.18
CATATCCC | 0.0466
TAAATCCA | 0.104
ATACGTGG | -0.0335

Sequence | PBM E-score
CGTAGAAG | -0.0667
GGTTTGAC | -0.0869
CTCCGCAG | 0.00742
CTTCATTC | -0.149
ACTACGAC | -0.0666
ATATCTGG | 0.106
CTGCCTTA | -0.111
ATCGGATA | 0.276
CACATTGC | 0.122
GCATATAA | 0.0993
CTCGCTCA | 0.138
CTGAGCTC | 0.0939
CGGGGAGA | -0.233
CCCTAAAG | -0.278
CACCCTAC | -0.00308
CTGGCGCC | 0.239
CGTGATCC | -0.132
ATATACTC | -0.0465
CACTATAA | -0.0386
AAGCCGGC | 0.149
AGCGTATA | 0.0997
GGAACCAC | -0.0252
CATCCAGG | -0.0256
CCAAGGTC | -0.00836
GCGGTCTA | 0.0493

Two records picked at random from the list so far, as already listed:
Sequence | PBM E-score
CGCACGCG | -0.00598
ATCCGATG | 0.229

Following part:

Sequence | PBM E-score
ACGCAGCT | 0.119
AGCAATTG | 0.218
CGCTGATC | 0.111
GTGACCTA | -0.131
AAATCCGA | 0.00337
CGTGGTAG | -0.139
AGCTCAGG | -0.0585
AGTTTTGG | 0.127
CCTTGTAC | -0.144
CCCCATAC | -0.0882
CGCTTAAG | 0.0156
ATCTGATC | 0.115
AAACAGAC | 0.0478
GGTGAATA | 0.0814
ACGGACTA | 0.0288
CCGTCGCC | 0.0415
TAACCGAA | 0.101
ATCAAAAT | 0.139
GGTAGGAA | 0.127
AACGTTCA | -0.209
CCAAGAAA | -0.0062
TGCACGCA | -0.0647
AATACTAA | 0.253
AGGGCATC | -0.208
CATGCGTA | 0.0468

Some of the entries so far, as a markdown table:

| Sequence | PBM E-score |
| --- | --- |
| CGACTCAC | -0.18 |
| TAACCGAA | 0.101 |
| AACGTTCA | -0.209 |

Remaining list, next part

Sequence | PBM E-score
CTTAGTGA | -0.021
AGACCATA | 0.188
CGAGCCGA | 0.0282
ATGACTCC | -0.0435
CTCGGGCA | 0.0974
AAGGGCCG | -0.116
GGTACCCA | -0.101
CCGCTACA | 0.0177
ATTACCAA | 0.292
AACATGCC | -0.0649
GCAAGTCC | -0.0237
CCTGGAGA | 0.014
GACATGGA | 0.0336
CACTCGAG | 0.0439
GATCGATC | 0.0347
GATGTGAC | -0.0433
CCTCCTCC | -0.244
CGGTGGAC | -0.177
GCCAGCCA | -0.0217
ATGTACCA | -0.0238
CAACTACA | 0.0903
CCCTGGGA | -0.299
GACTTGAA | 0.0861
CCCTGAAG | -0.165
AGAAACCC | -0.0818

Look-ups from the entries so far:
PBM E-score, ATGTACCA reads -0.0238
PBM E-score, GATGTGAC reads -0.0433

More records follow:

Sequence | PBM E-score
TAATGTAA | 0.246
AGCAGCCA | -0.0686
CAAGAAAA | 0.143
CAATGGAG | -0.128
TACCCGCA | 0.0306
AGTCACCG | -0.0721
GCTTACAA | 0.308
AGCCTCGA | 0.00096
AAAGGGAT | -0.0646
AGAAAGCC | -0.051
CGTTCTAC | -0.148
ACCCGCGG | 0.167
CTCTCCTC | -0.352
AAAGGGAA | -0.205
GGGGGAAA | -0.152
CTAAATGC | 0.0465
CAAATACG | 0.191
CGGGGTTC | -0.0658
AACGAATG | 0.199
CAGTATAC | 0.0126
CGCCGAGC | -0.0246
CCTTGTGC | -0.242
GAGGTTAC | -0.0416
CGTAGACA | -0.064
TGCCCCAA | -0.0102

Sequence | PBM E-score
GAAAATAC | 0.121
GGAGCCCC | -0.216
CAAAGAGC | -0.0525
CTTTTCAA | 0.0868
ATTCAGCA | 0.13
GGCGCCCA | 0.089
CTGGTGGA | -0.0943
AAATCATG | 0.182
CCGTAAAG | 0.0405
TCCCCCGA | -0.369
ATACTGAG | 0.164
CATGTCAC | 0.0823
AATCGATG | 0.271
AAAGGTAC | 0.0692
ATGCGAAG | 0.0556
CCAAAATA | 0.147
GATGGTTA | -0.0274
CAGACAAG | 0.115
AAATCGAA | -0.156
CCAGGAGG | -0.168
CAGGCCAG | 0.104
AGGTTGCA | 0.159
ATCCGAGG | 0.0713
CAACAGAA | -0.107
ATTAGAAG | -0.0342

Sequence | PBM E-score
GCTCCGCC | -0.0179
ACTGTTAG | -0.0202
AGTCTACC | -0.0892
AGGGACCA | -0.242
GCATAGAC | -0.0038
AGAAACAT | 0.0746
ACGTTCGG | -0.209
GCACGAGC | -0.0959
CGAAGTGA | 0.0764
ACAAGTGA | -0.155
CACTAACC | 0.0546
AGGACAGC | 0.00989
GACACCCC | -0.265
AGCGCGCC | 0.082
GCGTACTA | 0.0803
ATGAGCAA | 0.0977
AAGACGAT | 0.0121
CCAACGGA | -0.11
ACCGCGTA | 0.0865
AACGATCT | 0.0386
GCTACTCA | -0.0295
ATACAGGA | 0.182
AGCGCACT | -0.0706
ACCATCGG | -0.248
CTCAACTC | 0.14

Sequence | PBM E-score
CCGGTCAC | -0.0687
AGAAACTC | -0.0188
CAACTTTC | 0.0512
GAGAGGTA | -0.259
CGGTGCAG | -0.082
ACCTCTAC | 0.0344
GGACCCCA | -0.0361
CTCTTTGC | -0.0833
AACAGTTC | 0.126
GTTAACAA | 0.164
GAAGAGAA | 0.0123
ATAGGAGC | -0.203
AATTTCGA | 0.116
AAGACGGA | 0.0167
TATCTGAA | 0.00867
CTCGACCC | -0.00772
CCTAATTC | -0.115
ATAGGCTA | -0.0705
AAAAACCG | 0.128
